Source: article PMC4004385

Protein sequences, listed by entry. Tags and fused reporters are not part of them.
UniProt Q5NQ65: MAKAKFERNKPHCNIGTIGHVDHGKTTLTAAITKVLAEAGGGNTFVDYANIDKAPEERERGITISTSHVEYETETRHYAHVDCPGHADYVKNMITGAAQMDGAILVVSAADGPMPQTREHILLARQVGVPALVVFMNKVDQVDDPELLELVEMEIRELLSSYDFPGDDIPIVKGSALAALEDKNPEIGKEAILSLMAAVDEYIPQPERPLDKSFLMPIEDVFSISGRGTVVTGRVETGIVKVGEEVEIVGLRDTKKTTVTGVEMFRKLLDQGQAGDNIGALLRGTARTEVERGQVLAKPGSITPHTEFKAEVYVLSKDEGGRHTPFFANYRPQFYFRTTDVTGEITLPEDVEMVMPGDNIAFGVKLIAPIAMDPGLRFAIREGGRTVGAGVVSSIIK
UniProt Q5NPS6: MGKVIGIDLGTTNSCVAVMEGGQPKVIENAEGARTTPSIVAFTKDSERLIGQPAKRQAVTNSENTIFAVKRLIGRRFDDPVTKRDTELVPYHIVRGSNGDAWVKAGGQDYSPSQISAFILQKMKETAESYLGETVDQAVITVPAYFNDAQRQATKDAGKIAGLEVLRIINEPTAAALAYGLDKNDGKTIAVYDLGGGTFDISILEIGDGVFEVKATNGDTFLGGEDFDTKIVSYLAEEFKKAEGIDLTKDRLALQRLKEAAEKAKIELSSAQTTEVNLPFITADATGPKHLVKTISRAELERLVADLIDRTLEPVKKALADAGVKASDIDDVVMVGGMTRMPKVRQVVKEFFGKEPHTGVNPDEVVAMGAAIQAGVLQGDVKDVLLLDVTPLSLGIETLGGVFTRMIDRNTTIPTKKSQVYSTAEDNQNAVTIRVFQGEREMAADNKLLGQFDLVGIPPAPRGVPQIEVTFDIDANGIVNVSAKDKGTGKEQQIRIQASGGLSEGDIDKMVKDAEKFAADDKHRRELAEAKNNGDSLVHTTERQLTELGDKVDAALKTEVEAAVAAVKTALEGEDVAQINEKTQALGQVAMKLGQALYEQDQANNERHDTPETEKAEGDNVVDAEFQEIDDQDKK

T1: recombinant GST-AcpP fusion protein (acyl-carrier protein AcpP, ZZ6_0066) (Zymomonas mobilis ATCC 29191) (UniProt Q5NN07)
T1 sequence: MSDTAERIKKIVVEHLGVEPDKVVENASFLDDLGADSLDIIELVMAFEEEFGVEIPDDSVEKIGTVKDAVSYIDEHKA

T2: recombinant GST-KdsA fusion protein (2-dehydro-3-deoxyphosphooctonate aldolase KdsA, ZZ6_1604) (Zymomonas mobilis ATCC 29191) (UniProt Q5NME8)
T2 sequence: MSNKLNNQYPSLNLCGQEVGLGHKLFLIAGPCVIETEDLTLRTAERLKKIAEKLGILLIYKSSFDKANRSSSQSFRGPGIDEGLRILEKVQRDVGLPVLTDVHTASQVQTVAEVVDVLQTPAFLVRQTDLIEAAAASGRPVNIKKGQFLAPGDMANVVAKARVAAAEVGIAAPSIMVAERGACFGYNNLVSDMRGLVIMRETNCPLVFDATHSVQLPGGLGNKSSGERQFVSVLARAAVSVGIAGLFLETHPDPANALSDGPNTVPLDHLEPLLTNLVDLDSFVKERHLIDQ


What was measured:
Assay in all cases: affinity purification with mass spectrometry; GST or GST-fusion bait expressed from pZ7-GST vectors in Z. mobilis ATCC 29191 (semi-aerobic culture); cleared lysate on a 1 ml glutathione sepharose GSTrap FF column with ice cooling; binding buffer 25 mM Tris-HCl pH 7.4, 200 mM NaCl, 1 mM EDTA, 1.5 mM beta-mercaptoethanol; eluted with 10 mM reduced glutathione; bands cut from Coomassie-stained SDS-PAGE gels and identified by peptide mass fingerprinting and LC-MS/MS; wild-type strain as negative control
[1] = biological target: T1, recombinant GST-AcpP fusion protein (acyl-carrier protein AcpP, ZZ6_0066) (Zymomonas mobilis ATCC 29191)
[2] = biological target: T2, recombinant GST-KdsA fusion protein (2-dehydro-3-deoxyphosphooctonate aldolase KdsA, ZZ6_1604) (Zymomonas mobilis ATCC 29191)
[3] = biological target: Recombinant GST (heterologous recombinant GST expressed from pZ7-GST)

| binding [1] | binding [2] | binding [3] | Molecule |
| --- | --- | --- | --- |
| no binding | no binding |  | glyoxalase/bleomycin resistance protein/dioxygenase (Glo, ZZ6_1397; 128 aa) (enzyme) |
| no binding |  |  | short-chain dehydrogenase/reductase SDR (FabI) (enzyme) |
| no binding | binds |  | translation elongation factor Tu (Tuf; ZZ6_0750) (from UniProt Q5NQ65 1-397) |
| no binding | binds | no binding | cytidine 5'-triphosphate (CTP) synthase (PyrG; ZZ6_0800) (enzyme, UniProt Q5NQB9 1-544) MARFIFITGGVVSSLGKGLMAASLAALLQERGFRVRIRKFDPYLNVDPGTMSPYQHGEVYVTDDGAETDLDLGHYERFSGVPSRRSDNITSGRIYQNIIAKERRGDYLGATVQVIPHVTDAIKDFARDDTDDLDFVLCEIGGTVGDIESLPFIEAIRQLKNDLGRGNVVFVHLTLVPYIAAAGELKTKPTQHSVRDLTSFGIQPDVLVCRTEHPLPDSERSKIALFCNVPKEAVIPALDAKSIYDVPLHYHAEGLDKAVLSAFGLNIETPLDLHRWKEISDRLANPEGEVTIGVVGKYVGLQDAYKSLHEALVHGGIANRVKVNIVWLDAEMFEGNNPEAAEALSSLHAILVPGGFGERGSEGKIAAVKFAREHKVPFFGICLGMQMACIEGARNTAGLKKASSSEFGPSEEPVIGLITEWERDGEREERAADGDLGGTMRLGAYPAVLKAGSQVAEIYNSREITERHRHRYEVNIHYKEPLEKGGLVFSGMSPDGLLPEIVERPDHPWFIGVQFHPELKSKPFDPHPLFSDFVAAALKQSRLV |
| no binding | binds | no binding | translation elongation factor Ts (Tsf; ZZ6_0173) (protein, UniProt Q9X5E8 1-307) MAEITAAAVKALRERTGAGMMDCKKALNEANGEMEAAVDWLRAKGLAAAAKKSGRQAAEGLVGVMIDGTKGAVLEVNSETDFVAKNEKFQDFVKGVTALVLEHGSDIDTLSKAPHPAGGSVNDVLTANIATIGENQALRRAALLEVENGVVVPYIHNQVAPGVGKIGVLVALESEAPSDFLESLGKQIAMHVAAATPLALDEDSLDDAAVERERAIAQEKAAESGKPAEIVTRMVEGAVAKYRKENALLSQIFVVDGKTRVSDVVSKAAKETGKPITLKQFVRFQLGEGIEKQETDFAAEVAAAAGV |
| binds | no binding | no binding | (3R)-hydroxymyristoyl-ACP dehydratase (FabZ; ZZ6_0182) (enzyme, UniProt Q9X5F5 1-158) MTETTEKVESIGPLDVKRVMAALPHRFPMLLVDRVETLIPGEKIVAIKAVTINEPFFTGHFPGNPIMPGVLIVEALAQAAGVLAIESLGLTGTGKLVYFMAINETKFRIPVEPGILLRLEVEFLQKRAKICKFKARALIEDKVAAETEFTAMIADPAN |

Further lines, the molecule ahead of its results:

| Molecule | binding [1] | binding [2] | binding [3] |
| --- | --- | --- | --- |
| 3-oxoacyl-(acyl-carrier-protein) synthase III (FabH) (enzyme) | no binding |  |  |
| 3-oxoacyl-(acyl-carrier-protein) synthase 2 (FabF) (enzyme) | no binding |  |  |
| chaperone protein DnaK (ZZ6_0619) (from UniProt Q5NPS6 1-635) | no binding | binds |  |
| glyceraldehyde-3-phosphate dehydrogenase (G3P; ZZ6_1034) (enzyme, UniProt P09316 1-337) MAVKVAINGFGRIGRLAARAILSRPDSGLELVTINDLGSVEGNAFLFKRDSAHGTYPGTVTTEGNDMVIDGKKIVVTAERDPANLPHKKLGVDIVMECTGIFTNTEKASAHLTAGAKKVLISAPAKGDVDRTVVYGVNHKDLTADDKIVSNASCTTNCLAPVLHVLQQKIGIVRGLMTTVHSFTNDQRILDQIHSDLRRARTASASMIPTSTGAARAVALVIPELKGKLDGISIRVPTPDVSLVDFTFVPQRDTTAEEINSVLKAAADTGDMTGVLGYTDEPLVSRDFYSDPHSSTVDSRETAVLEGKLARVVAWYDNEWGFSNRMVDTAAQMAKTL | binds | no binding | no binding |
| pyruvate decarboxylase (PDC; ZZ6_1712) (enzyme, UniProt P06672 1-568) MSYTVGTYLAERLVQIGLKHHFAVAGDYNLVLLDNLLLNKNMEQVYCCNELNCGFSAEGYARAKGAAAAVVTYSVGALSAFDAIGGAYAENLPVILISGAPNNNDHAAGHVLHHALGKTDYHYQLEMAKNITAAAEAIYTPEEAPAKIDHVIKTALREKKPVYLEIACNIASMPCAAPGPASALFNDEASDEASLNAAVEETLKFIANRDKVAVLVGSKLRAAGAEEAAVKFADALGGAVATMAAAKSFFPEENPHYIGTSWGEVSYPGVEKTMKEADAVIALAPVFNDYSTTGWTDIPDPKKLVLAEPRSVVVNGIRFPSVHLKDYLTRLAQKVSKKTGALDFFKSLNAGELKKAAPADPSAPLVNAEIARQVEALLTPNTTVIAETGDSWFNAQRMKLPNGARVEYEMQWGHIGWSVPAAFGYAVGAPERRNILMVGDGSFQLTAQEVAQMVRLKLPVIIFLINNYGYTIEVMIHDGPYNNIKNWDYAGLMEVFNGNGGYDSGAGKGLKAKTGGELAEAIKVALANTDGPTLIECFIGREDCTEELVKWGKRVAAANSRKPVNKLL | binds | no binding | no binding |
| holo-acyl-carrier-protein synthase (AcpS; ZZ6_1409) (enzyme, UniProt Q5NLS7 1-134) MIIGIGTDLCNIDRITTILGKKESGRFIKRLFSCEEIEASSAFSMTKAAFFAKRFAAKEAFVKALGTGFRHSISFQDISISNDSLGAPKVNISGKAALLLEEKKPPRHTLSIHLSLSDDHPWALAFVVIEACPE | binds | no binding | no binding |

These are yes or no findings as the source states them, for the method shown. Binding seen in cells or lysates may run through a third protein. These calls come from enrichment with a bait or labelling near it, and not all partners need be listed. A no says only that the protein was not detected with the bait. For part of these data: Where a sequence is shown, tags or fusion partners need not be part of it.
